Results as given in PubChem BioAssay AID651804 (National Center for Advancing Translational Sciences (NCATS), 2012).
The campaign covered roughly 1,200 compounds. About 20 (2%) were called active. Inconclusive results (about 23%) are left out. Calls follow the shape of the dose curve; as a rule, active = well fitted inhibition curve with a large enough effect; inconclusive = small, poorly fitted or top-dose-only effect; inactive = no such curve, though single readings can be large or run the other way. This is one part of the list.

The chains behind the UniProt entries cited, without tags or fusion partners. Where a name states a change or a piece, a line headed by the entry shows the natural chain unless it says otherwise.
UniProt P11308: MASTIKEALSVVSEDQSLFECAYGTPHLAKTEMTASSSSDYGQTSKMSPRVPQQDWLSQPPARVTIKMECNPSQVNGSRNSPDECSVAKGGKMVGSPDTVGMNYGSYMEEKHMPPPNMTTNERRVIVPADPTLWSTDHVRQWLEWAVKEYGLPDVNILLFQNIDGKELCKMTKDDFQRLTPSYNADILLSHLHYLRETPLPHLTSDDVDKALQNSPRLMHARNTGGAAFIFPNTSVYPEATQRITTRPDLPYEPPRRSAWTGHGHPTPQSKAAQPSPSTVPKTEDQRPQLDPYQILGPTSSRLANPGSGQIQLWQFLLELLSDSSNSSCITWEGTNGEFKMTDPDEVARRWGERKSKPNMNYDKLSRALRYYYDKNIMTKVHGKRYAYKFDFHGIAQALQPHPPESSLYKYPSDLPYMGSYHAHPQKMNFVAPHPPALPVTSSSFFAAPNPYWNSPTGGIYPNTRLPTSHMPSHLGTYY

Molecular target: Transcriptional regulator ERG (Homo sapiens) (UniProt P11308)
Assay: qHTS for Small Molecule Inhibitors of the ERG Ets/DNA interaction: HTRF assay against cherry picks
Settings: His-ERG Ets domain with biotin-DNA; series mostly up to 154 µM; activity change, negative = inhibition: at the top concentration
In short: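 HTRF of His-tagged ERG Ets domain (200 nM solution) with biotin-DNA (200 nM solution) in 300mM KCl, 50mM Tris-HCl pH 7.5, 1mM EDTA, 1mM DTT; 10 min RT. Anti-His cryptate donor plus streptavidin acceptor added, 10 min, FRET read at 615/665 nm.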
Potency is read from the fitted curve at half-maximal effect.

SMILES	activity change, negative = inhibition	Potency
CC1CCCCC1NC(=O)/C(C#N)=C/c1ccc(OCC(N)=O)cc1 (centres undefined)	inactive: -20.1%	
Cc1cccn2c(=O)cc(COc3ccc(NC(=O)C(C)C)cc3)nc12	inactive: -16.7%	
Cc1cc(OCc2nnc(SC(C)C(=O)O)n2-c2ccccc2)ccc1Cl (centres undefined)	inactive: -4.46%	
COc1ccccc1NS(=O)(=O)c1ccc(C)c(NC(=O)c2c(C)noc2C)c1	inactive: -24.5%	
COC(=O)c1c(C(=O)OC)c(-c2ccc(C(C)(C)C)cc2)n2c1CS(=O)C2 (centres undefined)	inactive: -24.7%	
Nc1ccc2nc(SCC(=O)N3CCOCC3)sc2c1	inactive: -9.55%	
Cc1cccc(C)c1-n1cccc1/C=C1/C(=N)N2C(=NC1=O)SN=C2S(C)(=O)=O	inactive: -25.3%	
CCN(CC)C(=O)Cn1cc(C(=O)C(=O)NCCCN2CCOCC2)c2ccccc21	inactive: -32.6%	
CS(=O)(=O)N(Cc1ccccc1)c1ccc(C(=O)Nc2ccc(Cl)cc2)cc1	inactive: -18.8%	
CCCCn1c(N)c(N(CC(C)C)C(=O)c2ccc(S(=O)(=O)N(CC)c3ccccc3)cc2)c(=O)[nH]c1=O	inactive: -7.53%	
COc1ccc(-c2nc3c(c4nnc(SC(C)C(=O)Nc5ccc(C)cc5)n24)COC(C)(C)C3)cc1 (centres undefined)	inactive: 6.21%	
O=C(/C=C/c1ccc([N+](=O)[O-])cc1)NCc1ccco1		active: 28.2 µM
Cc1ccc2nc3c(c(N)c2c1)CCN3C	inactive: -20.7%	
COc1ccc(NC(C)c2ccccc2)cc1 (centres undefined)	inactive: -15.4%	
Oc1ccccc1/C=N/n1c(COc2ccccc2)n[nH]c1=S	inactive: -9.39%	
Cc1ccc(S(=O)(=O)N2CCCCC2)cc1NC(=O)C1CC(=O)N(c2ccc3c(c2)OCCO3)C1 (centres undefined)	inactive: -5.57%	
COc1ccc(C(C)(C)C)cc1NC(=O)C1=CC=CN2CCS(=O)(=O)N=C12	inactive: -15.7%	
CCOC(=O)N1CCC(NC(=O)CSCc2nc(-c3ccc(OCC)cc3)oc2C)CC1	inactive: -0.69%	
CCCCN(CC)C(=O)CSc1nc2n[nH]c(C)c2c(=N)n1-c1cccc(C)c1	inactive: -20.4%	
O=C(NCc1ccc2c(c1)OCO2)NC1CCCCC1	inactive: -7.16%	
COc1ccc(OCC(=O)NNC(=O)C2CCN(c3ncnc4sc(C)c(C)c34)CC2)cc1	inactive: 1.96%	
COc1ccc(NC(=O)C(C)(C)Oc2ccc(Cl)cc2)cn1	inactive: -36.2%	
COc1ccc(CCNc2oc(-c3cccc4ccccc34)nc2P(=O)(OC)OC)cc1OC	inactive: -11.9%	
CCC(=O)N1CCN(c2nc3ccc(Br)cc3s2)CC1	inactive: -20.5%	
O=C(Nc1ccc(N2CCN(C(=O)c3cccs3)CC2)cc1)c1ccccc1Cl	inactive: 10%	
COc1cc(NCCCC(C)N)c2ncccc2c1 (centres undefined)		active: 44.7 µM

SMILES	activity change, negative = inhibition	Potency
Cc1cccn2c(=O)c3cc(C#N)c(=NC(=O)c4ccccc4)n(Cc4ccco4)c3nc12	inactive: 22.6%	
CCOC(=O)c1c(NC(=O)C(C)Sc2cn(CCNC(=O)c3ccc(OC)c(OC)c3)c3ccccc23)sc2c1CCC2 (centres undefined)	inactive: -17.7%	
O=C(Nc1ccc(-c2nc3ccccc3[nH]2)cc1)c1c(F)c(F)c(F)c(F)c1F	inactive: -17.1%	
O=S(=O)(NCCC1=CCCCC1)c1ccc(OC(F)(F)F)cc1	inactive: -7.37%	
CCC1COC(c2cccn2Cc2ccc(Cl)cc2)=N1 (centres undefined)	inactive: 7.96%	
O=C(NC1CCCC1)C1CCC(CNS(=O)(=O)c2cccs2)CC1 (centres undefined)	inactive: -17.6%	
O=C(CN1C(=O)COc2ccc(S(=O)(=O)N3CCCCCC3)cc21)N1CCN(c2ccccc2F)CC1	inactive: -18.7%	
C#C[C@]1(O)CCC2C3CCC4=CC(=O)CC[C@@H]4C3CC[C@@]21C (some centres undefined)	inactive: -23.4%	
C/C(=N/OCO/N=C(\C)c1ccccc1)c1ccccc1	inactive: -23%	
O=C(Nc1cc2c(cc1Cl)-c1ccc([N+](=O)[O-])cc1C2=NO)C(F)(F)F	inactive: -54.7%	
O=C(OCC(=O)c1ccc(Cl)cc1Cl)c1cnccn1	inactive: -4.24%	
OC(c1cc(C(F)(F)F)nc2c(Cl)cc(Cl)cc12)C1CCCCN1 (centres undefined)	inactive: -41.6%	
Cc1c(OCC(=O)NCC2CCC(C(=O)NCCCO)CC2)ccc2c(-c3ccccc3)cc(=O)oc12 (centres undefined)	inactive: -39.8%	
CCc1ccc(S(=O)(=O)NC2CC(C)(C)NC(C)(C)C2)cc1	inactive: -22.9%	
COc1ccccc1NC(=O)N1CCN(C(=O)Nc2ccccc2OC)CC1	inactive: -25.8%	
C=C(C)[C@@H]1CC=C(C(=O)O)CC1	inactive: 0.796%	
COc1ccc(NC(=O)CSc2nc(C)c3c(c2C#N)CCCC3)cc1	inactive: -22.1%	
O=C(Nc1ccncc1)c1cn(-c2ccccc2)nc1-c1cccs1	inactive: 17.1%	
Cc1ccc(Cl)cc1NC(=O)c1oc2ccc(S(=O)(=O)N(C)C3CCCCC3)cc2c1C	inactive: 6.1%	
Cc1ccc(OCC(=O)OCC(=O)c2ccccc2)cc1C	inactive: -5.15%	
CCCC(c1nnnn1CS(=O)(=O)c1ccc(C)cc1)N1CCN(CC)CC1 (centres undefined)	inactive: -23.3%	
CCOC(=O)C(c1ccccc1)C(Nc1ccc(F)cc1)c1ccccn1 (centres undefined)	inactive: -17.7%	
COC(=O)Cn1c(=NC(=O)CN2C(=O)CCC2=O)sc2cc(S(N)(=O)=O)ccc21	inactive: -14.5%	
COCC1CCN(Cc2nc(-c3ccc4c(c3)OCO4)no2)C1 (centres undefined)	inactive: 1.59%	
CC1CC(=O)N(CC(=O)Nc2cccc(Cl)c2)c2ccccc2S1(=O)=O (centres undefined)	inactive: -28.9%	
Cc1ccc2c(c1)N(CCC(=O)NCCCN1CCCC1)C(=O)CO2	inactive: -0.849%	

As a short view, 6 of the compounds above:
SMILES	activity change, negative = inhibition	Potency
CCN(CC)C(=O)Cn1cc(C(=O)C(=O)NCCCN2CCOCC2)c2ccccc21	inactive: -32.6%	
CS(=O)(=O)N(Cc1ccccc1)c1ccc(C(=O)Nc2ccc(Cl)cc2)cc1	inactive: -18.8%	
CCCCn1c(N)c(N(CC(C)C)C(=O)c2ccc(S(=O)(=O)N(CC)c3ccccc3)cc2)c(=O)[nH]c1=O	inactive: -7.53%	
COc1ccc(-c2nc3c(c4nnc(SC(C)C(=O)Nc5ccc(C)cc5)n24)COC(C)(C)C3)cc1 (centres undefined)	inactive: 6.21%	
O=C(/C=C/c1ccc([N+](=O)[O-])cc1)NCc1ccco1		active: 28.2 µM
Cc1ccc2nc3c(c(N)c2c1)CCN3C	inactive: -20.7%	

The list continues.

SMILES	activity change, negative = inhibition	Potency
Cc1ccc(NS(=O)(=O)c2cc(Br)cnc2N)c(Cl)c1	inactive: -21.4%	
Cc1cc(C)cc(-n2ccnc2SCC(=O)Nc2ccc(C)c(Cl)c2)c1	inactive: -25.1%	
O=C(Nc1c(C(=O)C2CC2)oc2ccccc12)c1ccc(Cl)cc1	inactive: -11.9%	
CC(CCC(=O)O)C1CCC2C3C(O)CC4CC(O)CCC4(C)C3CC(O)C12C (centres undefined)	inactive: -5.84%	
O=C(N/N=C/c1cccs1)c1cccs1	inactive: -26.8%	
Cc1nc(-c2ccc(F)cc2)c(CC(=O)N2CCN(S(=O)(=O)c3cccc(F)c3)CC2)s1	inactive: -27.8%	
CCc1ccccc1N(CC(=O)NCc1ccco1)C(=O)CCC(=O)Nc1ccccn1	inactive: -24%	
CCOCCn1c(CN2CCCCC2)nc2c1c(=O)n(C)c(=O)n2C	inactive: -23%	
C[C@H](NC(=O)[C@@H]1Cc2ccccc2CN1C(=O)OC(C)(C)C)C(=O)NC1CCCCC1	inactive: -5.84%	
O=C(O)c1ccc(CSCc2ccccc2F)o1	inactive: -27.1%	
CCC1CCC(NC(=O)Nc2cccc(OC)c2)CC1 (centres undefined)	inactive: -3.71%	
Cc1cccc(Nc2c(O)nc[nH]c2=O)c1	inactive: -27.5%	
CCc1c(C)sc(NC(=O)OC)c1C(=O)N1CCCCC1	inactive: -20.9%	
Cc1ccc(CNC(=O)CSCc2ccc(F)cc2)cc1	inactive: -23.9%	
S=c1nc[nH]c2nc[nH]c12	inactive: -36.8%	
CC(=O)Nc1ccc(-c2csc(NC(=O)C3CC(=O)N(c4ccc5c(c4)OCCO5)C3)n2)cc1 (centres undefined)	inactive: -12.9%	
CCOC(=O)C1=C(C)N=c2s/c(=C\c3cc(OC)c(OC)c(OC)c3)c(=O)n2C1/C=C/c1ccccc1 (centres undefined)	inactive: -12.1%	
CC(=O)Nc1ccc2c(c1)NC(=O)CC2	inactive: -12.5%	
CC(C)(CO)CNC(=O)c1ccc(OC2CCN(C(=O)C3CC3)CC2)cc1	inactive: -13.2%	
CC(C)=CCC/C(C)=C/CNC(=O)C[C@H]1C[C@H](C(=O)N2CCCCC2)[C@@]2(CCc3ccccc3)c3[nH]c4cc(-c5ccco5)ccc4c3CCN2C1=O	inactive: -27.2%	
O=C1Nc2cc(C(=O)N3CCOCC3)ccc2SC1N1CCOCC1 (centres undefined)	inactive: -30.1%	
COc1ccccc1CN1CCCCC1C(=O)O (centres undefined)	inactive: -4.93%	
COc1ccc(Cl)cc1N=Cc1c(O)c2ccccc2oc1=O	inactive: -24.1%	
CCS(=O)(=O)N1CCC(C(=O)OCC(=O)c2ccc(Br)cc2)CC1	inactive: 1.49%	
Cc1ccccc1-n1c(=O)n(CCc2ccccc2)c(=O)c2[nH]cnc21	inactive: -2.33%	
O=c1ccc(-c2ccc(S(=O)(=O)Nc3cccc(Br)c3)o2)n[nH]1	inactive: -24.7%	

SMILES	activity change, negative = inhibition	Potency
C=CCN1C(=O)c2ccc(C(=O)Nc3ccccn3)cc2C1=O	inactive: -29.2%	
COc1cc(OC)c(N(C)S(=O)(=O)c2cccc(C(=O)NC(C)C3CC4CCC3C4)c2)cc1Cl (centres undefined)	inactive: -14.9%	
Cc1ccc(S(=O)(=O)/N=C(/NC(=S)Nc2c(C)n(C)n(-c3ccccc3)c2=O)c2ccccc2)cc1	inactive: -23.4%	
CCCN(CC(=O)Nc1ccc(F)c(F)c1F)C(=O)C1CC(=O)N(Cc2ccccc2)C1 (centres undefined)	inactive: -22.6%	
COC(=O)Nc1ccc(S(=O)(=O)NNC(=O)c2c(O)c3ccccc3n(C)c2=O)cc1	inactive: -6.74%	
O=C(CCN=C1NS(=O)(=O)c2ccccc21)OCc1ccccc1	inactive: -3.29%	
Nc1c(C(=O)O)cnn1-c1ccccc1	inactive: -28.4%	
Cc1ccc(S(=O)(=O)NCC(=O)N(CC(=O)NCC2CCCO2)c2cccc(F)c2)cc1 (centres undefined)	inactive: -27%	
CCN(Cc1ccccc1)C(=O)CN1C(=O)c2ccccc2C1=O	inactive: -28.6%	
O=C(COc1coc(CN2CCCc3ccccc32)cc1=O)Nc1cccc([N+](=O)[O-])c1	inactive: -33%	
COC(=O)c1ccccc1NC(=O)c1cc(C2CC2)on1	inactive: -14.3%	
CC1=C(C#N)CCC(=O)N1Cc1c(F)cccc1Cl	inactive: -12.7%	
Cc1ccc(S(=O)(=O)N2CCC[C@H]2C(=O)NC2CCCCC2)cc1	inactive: -19.9%	
O=C(NCCCc1ccccc1)C(=O)NCC1OCCN1S(=O)(=O)c1cc(F)ccc1F (centres undefined)	inactive: -21.2%	
Cc1cccc(-c2oc3ccccc3c2-c2ccc3c(c2)OCO3)c1	inactive: -23.8%	
CCCn1c(SCC(=O)Nc2cccc(C(=O)OCC)c2)nnc1-c1ccoc1C	inactive: -22.8%	
CC(C)=CCOc1ccc2ccc(=O)oc2c1	inactive: -25.5%	
CC(CCc1ccccc1)NC(=S)NC1CCCCC1 (centres undefined)	inactive: -11.6%	
Cc1ccc(-n2c(CCC(=O)O)ccc2-c2cccs2)cc1Cl	inactive: 2.02%	
c1ccc2oc(-c3ccn[nH]3)cc2c1	inactive: -12.9%	
O=C(O)c1ccccc1Nc1cccc(OCc2ccc3ccccc3n2)c1	inactive: -19.3%	
CCOc1ccc(-c2nnc(NC(=O)Cc3cc(OC)c(OC)c(OC)c3)o2)cc1	inactive: -3.5%	
CCOC(=O)c1ccc(NC(=S)N2CCSC2c2ccc(OC)cc2)cc1 (centres undefined)	inactive: -25.1%	
COc1ccc(-c2c/c(=N\c3nc(-c4ccccc4)c(C)s3)c3ccccc3o2)cc1O	inactive: -22.7%	
O=C(OCCOCCN=C1NS(=O)(=O)c2ccccc21)c1ccccc1Br	inactive: -32.5%	
O=C(O)c1ccc(Nc2ncnc3scc(-c4ccccc4)c23)cc1	inactive: 20.5%	
